Five molecules from PMC5575663 can be followed below.

No constants are given. Whether binding was seen depends on the method and setting. For part of these data: Binding can be weak; no strength is given. For part of these data: In cells and extracts the contact can be indirect.

Test [1] concerns the target BD-CpCZF1 (Chimonanthus praecox (wintersweet)). As to the kind of experiment: two-hybrid; Matchmaker Gold Yeast Two-Hybrid System (Clontech), GAL4 system; BD and AD constructs co-transformed into yeast strain Y2HGold; DDO/X plates for co-transformation, QDO/X/A selective medium for interaction (growth and blue colour).
The target of test [2] is CpCZF1-nEYFP (Chimonanthus praecox (wintersweet)). As to the kind of experiment: split reporter; YFP BiFC; nEYFP (aa 1-174) and cEYFP (175-239) fusions co-infiltrated by Agrobacterium GV3101 (OD600 = 0.5, mixed equally) into lower epidermal cells of tobacco leaves; 36 h in the dark at 22 °C; confocal microscopy.
The target in test [3] is nEYFP-CpCZF1 (Chimonanthus praecox (wintersweet)). The description is as above.
For test [4], the target named is CpCZF1-cEYFP (Chimonanthus praecox (wintersweet)). Described as above.
Test [5] deals with cEYFP-CpCZF1 (Chimonanthus praecox (wintersweet)). The description is as above.

As for AD-CpCZF2 (from UniProt A0A1U9YF98), the binding result in test [1] is given as “binds”.

B1: AtSZF1-cEYFP (protein, UniProt Q93ZS9 1-580)
chain: MCSGPKSNLCSSRTLTEIESRQKEEETMLLLEFAACDDLDSFKREVEEKGLDLDESGLWYCRRVGSKKMGLEERTPLMVAAMYGSIKVLTFIVSTGKSDVNRACGEERVTPLHCAVAGCSVNMIEVINVLLDASALVNSVDANGNQPLDVFVRVSRFVASPRRKAVELLLRGGGVGGLIDEAVEEEIKIVSKYPADASLPDINEGVYGSDEFRMYSFKVKPCSRAYSHDWTECAFVHPGENARRRDPRKYPYTCVPCPEFRKGSCPKGDSCEYAHGVFESWLHPAQYKTRLCKDETGCARKVCFFAHKREEMRPVNASTGSAVAQSPFSSLEMMPGLSPLAYSSGVSTPPVSPMANGVPSSPRNGGSWQNRVNTLTPPALQLNGGSRLKSTLSARDIDMEMEMELRLRGFGNNVEETFGSYVSSPSRNSQMGQNMNQHYPSSPVRQPPSQHGFESSAAAAVAVMKARSTAFAKRSLSFKPATQAAPQSNLSDWGSPNGKLEWGMKGEELNKMRRSVSFGIHGNNNNNAARDYRDEPDVSWVNSLVKDSTVVSERSFGMNERVRIMSWAEQMYREKEQTVV
B1: the binding result in test [2] and in test [3] was “no binding” throughout.

B2: nEYFP-AtSZF1 (protein, UniProt Q93ZS9 1-580)
chain: MCSGPKSNLCSSRTLTEIESRQKEEETMLLLEFAACDDLDSFKREVEEKGLDLDESGLWYCRRVGSKKMGLEERTPLMVAAMYGSIKVLTFIVSTGKSDVNRACGEERVTPLHCAVAGCSVNMIEVINVLLDASALVNSVDANGNQPLDVFVRVSRFVASPRRKAVELLLRGGGVGGLIDEAVEEEIKIVSKYPADASLPDINEGVYGSDEFRMYSFKVKPCSRAYSHDWTECAFVHPGENARRRDPRKYPYTCVPCPEFRKGSCPKGDSCEYAHGVFESWLHPAQYKTRLCKDETGCARKVCFFAHKREEMRPVNASTGSAVAQSPFSSLEMMPGLSPLAYSSGVSTPPVSPMANGVPSSPRNGGSWQNRVNTLTPPALQLNGGSRLKSTLSARDIDMEMEMELRLRGFGNNVEETFGSYVSSPSRNSQMGQNMNQHYPSSPVRQPPSQHGFESSAAAAVAVMKARSTAFAKRSLSFKPATQAAPQSNLSDWGSPNGKLEWGMKGEELNKMRRSVSFGIHGNNNNNAARDYRDEPDVSWVNSLVKDSTVVSERSFGMNERVRIMSWAEQMYREKEQTVV
For B2, the binding entry in test [4] and in test [5] was “no binding” each time.

B3: cEYFP-AtSZF1 (protein, UniProt Q93ZS9 1-580)
chain: MCSGPKSNLCSSRTLTEIESRQKEEETMLLLEFAACDDLDSFKREVEEKGLDLDESGLWYCRRVGSKKMGLEERTPLMVAAMYGSIKVLTFIVSTGKSDVNRACGEERVTPLHCAVAGCSVNMIEVINVLLDASALVNSVDANGNQPLDVFVRVSRFVASPRRKAVELLLRGGGVGGLIDEAVEEEIKIVSKYPADASLPDINEGVYGSDEFRMYSFKVKPCSRAYSHDWTECAFVHPGENARRRDPRKYPYTCVPCPEFRKGSCPKGDSCEYAHGVFESWLHPAQYKTRLCKDETGCARKVCFFAHKREEMRPVNASTGSAVAQSPFSSLEMMPGLSPLAYSSGVSTPPVSPMANGVPSSPRNGGSWQNRVNTLTPPALQLNGGSRLKSTLSARDIDMEMEMELRLRGFGNNVEETFGSYVSSPSRNSQMGQNMNQHYPSSPVRQPPSQHGFESSAAAAVAVMKARSTAFAKRSLSFKPATQAAPQSNLSDWGSPNGKLEWGMKGEELNKMRRSVSFGIHGNNNNNAARDYRDEPDVSWVNSLVKDSTVVSERSFGMNERVRIMSWAEQMYREKEQTVV
B3: the binding entry in test [2] and in test [3] was “no binding” each time.

B4: AtSZF1-nEYFP (protein, UniProt Q93ZS9 1-580)
chain: MCSGPKSNLCSSRTLTEIESRQKEEETMLLLEFAACDDLDSFKREVEEKGLDLDESGLWYCRRVGSKKMGLEERTPLMVAAMYGSIKVLTFIVSTGKSDVNRACGEERVTPLHCAVAGCSVNMIEVINVLLDASALVNSVDANGNQPLDVFVRVSRFVASPRRKAVELLLRGGGVGGLIDEAVEEEIKIVSKYPADASLPDINEGVYGSDEFRMYSFKVKPCSRAYSHDWTECAFVHPGENARRRDPRKYPYTCVPCPEFRKGSCPKGDSCEYAHGVFESWLHPAQYKTRLCKDETGCARKVCFFAHKREEMRPVNASTGSAVAQSPFSSLEMMPGLSPLAYSSGVSTPPVSPMANGVPSSPRNGGSWQNRVNTLTPPALQLNGGSRLKSTLSARDIDMEMEMELRLRGFGNNVEETFGSYVSSPSRNSQMGQNMNQHYPSSPVRQPPSQHGFESSAAAAVAVMKARSTAFAKRSLSFKPATQAAPQSNLSDWGSPNGKLEWGMKGEELNKMRRSVSFGIHGNNNNNAARDYRDEPDVSWVNSLVKDSTVVSERSFGMNERVRIMSWAEQMYREKEQTVV
As to B4, the binding result in test [4] and in test [5] was “no binding” each time.
